## Library screening results

Sequences of proteins named here, by UniProt entry; tags and fusion partners are left off.
UniProt E9BF75, entry or part of it: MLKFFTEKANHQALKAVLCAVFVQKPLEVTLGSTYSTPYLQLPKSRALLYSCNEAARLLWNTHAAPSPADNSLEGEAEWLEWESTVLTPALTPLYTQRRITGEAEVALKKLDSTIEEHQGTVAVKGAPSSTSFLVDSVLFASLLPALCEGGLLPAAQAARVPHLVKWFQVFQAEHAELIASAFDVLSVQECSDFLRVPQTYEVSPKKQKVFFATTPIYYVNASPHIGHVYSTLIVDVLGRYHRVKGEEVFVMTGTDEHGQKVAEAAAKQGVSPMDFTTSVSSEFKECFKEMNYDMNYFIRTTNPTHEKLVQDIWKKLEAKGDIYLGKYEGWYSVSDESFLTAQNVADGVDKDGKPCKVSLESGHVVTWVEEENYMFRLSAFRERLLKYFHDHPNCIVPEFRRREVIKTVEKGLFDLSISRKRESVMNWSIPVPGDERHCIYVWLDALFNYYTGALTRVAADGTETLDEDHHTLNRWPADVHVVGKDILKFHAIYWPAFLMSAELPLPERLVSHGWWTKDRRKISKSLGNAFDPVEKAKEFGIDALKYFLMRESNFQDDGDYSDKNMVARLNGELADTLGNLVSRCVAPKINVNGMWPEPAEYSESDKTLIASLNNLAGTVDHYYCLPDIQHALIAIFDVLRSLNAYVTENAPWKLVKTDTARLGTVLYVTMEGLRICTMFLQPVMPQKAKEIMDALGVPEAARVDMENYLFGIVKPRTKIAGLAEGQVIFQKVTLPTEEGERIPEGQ

The values are deposited in ChEMBL (CHEMBL3988442, “University of Dundee, Small-Polar-MMV Screening Library” (2021)).

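Primary screen of methionyl-tRNA synthetase; the read-out is not stated. Target: Methionyl-tRNA synthetase (putative), Leishmania donovani (UniProt E9BF75). The test concentration is not given. Values are per cent inhibition. Size under these conditions: about 68,000 compounds, about 24 of them at 50% or above in at least one test.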

All values are in %.
The controls that fix the scale are not given in the record; negative values are as filed.
This is an unselected part of the compounds tested.
Two or more numbers in one place are separate tests of the same structure; such repeats can differ widely.

Compound,inhibition
Clc1cccc(-c2nc(CNC3CCc4ncnn4C3)co2)c1 (configuration not stated),5.983
O=C(NC(c1ccc(Cl)cc1)c1cccnc1)C1CC1 (configuration not stated),13.18
Cc1ccccc1OC1CCN(CC(=O)Nc2cn(C)nc2C)CC1,11.01
CCCSCC(=O)N1CCC2(CC1)CC(c1ccccc1)CN(C)C2 (configuration not stated),6.593
CC(C)=CCC/C(C)=C\CNCc1ccco1,18.01
CNc1cccc(C2CN(C(=O)c3c[nH]cn3)CCO2)n1 (configuration not stated),7.979
Cc1cc(SCC(N)=O)nc(-c2ccc(F)cc2)n1,6.971
CC(C)n1ccnc1CN1C(=O)OC[C@@H]1c1ccccc1,3.846
Cc1nnc(NCC2(c3ccccc3)CC2)c(C#N)c1C,11.96
CC(C)(C)c1cc(CN2CCOC(CCc3ccccc3)C2)n[nH]1 (configuration not stated),9.774
CC(=O)N1CCC2(CC1)CN(C(C)=O)CC21CCNC1=O (configuration not stated),4.444
CC(C)[C@@H]1CN(C(=O)CCn2ccccc2=O)C[C@H]1NS(C)(=O)=O,11.63
CCOc1nn(CC)cc1-c1nnc(SCc2ccccn2)n1C,14.63
Cc1ccc(C(=O)N2CCC3(CCC(C(=O)NCC4CC4)O3)CC2)o1 (configuration not stated),14.42
CN1CCN(c2ncnc3c2CCN(c2ncc(F)cn2)CC3)CC1,5.226
N#Cc1ccc(C(=O)N2CCn3cc(CN4CCCCC4)nc3C2)cc1,6.965
Cc1nnc(NC(=O)NCc2ccoc2)s1,22.16
Cc1ccc(C2CCCN2Cc2nc3c(cnn3C)c(=O)[nH]2)cc1C (configuration not stated),8.92
CN(C)C(=O)c1ccc(C(C(=O)O)N(C)Cc2ccccc2Cl)cc1 (configuration not stated),14.99
Cc1n[nH]c(C)c1Sc1ccccc1NC(=O)N1CCCC(C(N)=O)C1 (configuration not stated),20.14
CN1CCOC(CNCc2nc(-c3ccco3)no2)C1 (configuration not stated),12.11
COc1ccc(CN2CC(O)CN(C(=O)OCC(C)(C)C)CC2=O)cc1 (configuration not stated),10.68
COc1ncccc1CN1C[C@@H]2CN(c3ncccn3)C[C@@H]2C1,-1.099
CC1=Nc2c(c(=O)[nH]n2C2CCCCC2)C(c2ccc(C(=O)O)cc2)S1 (configuration not stated),16.28 & 14.4
N#Cc1cn(C2CC2)c(=O)n(Cc2noc(-c3ccsc3)n2)c1=O,11.65
COc1c(CNCc2ccccc2-n2ccnc2)c(C)nn1C,0.5495
CNC(=O)C1(CCCc2cnccn2)CCN1Cc1ccc(C)cc1 (configuration not stated),14.6
CS(=O)(=O)N1CCC2(CCCN(CCCc3ccccc3)C2=O)C1 (configuration not stated),9.677
c1cc(CNCc2ccc(Cn3cncn3)cc2)c2c(c1)OCCO2,12.83
Clc1ccccc1-c1nnc(CN2CCCC2Cn2cncn2)o1 (configuration not stated),15.91
Cc1ccc(CN2CCc3ncnc(C4CCOC4)c3CC2)s1 (configuration not stated),15.48
COCC[C@]1(O)CCN(Cc2nc(C)c(C)s2)C[C@H]1C,14.63
CC(C)C1CN(c2ncc(F)cn2)CCC(=O)N1Cc1ccc(F)cc1 (configuration not stated),14.16
NC(=O)c1cc(C2CCCN(CCOCC3CC3)C2)n[nH]1 (configuration not stated),20.2
Cc1noc(C)c1CN1CCn2cc(CN3CCCC3)nc2C1,5.495
O=C(c1cc(F)cc(F)c1)N1CCC2(CC1)CC2,7.268
Cc1cncc(C(=O)N2CCCC(C(=O)CCc3ccccc3)C2)c1 (configuration not stated),9.36
CCn1cc(CN(C)S(=O)(=O)c2ccc(C)c(C)c2)cn1,3.769
CNC(=O)CC1c2cccnc2C(=O)N1Cc1ccccc1 (configuration not stated),11.08
CCC[C@H]1CN(Cc2ccc(N(C)C)nc2)C[C@@H]1NC(=O)CCOC,4.53
O=C1CC[C@H]2[C@H](CCN2c2ncc(F)cn2)N1c1cccnc1,5.926
O=C(CSc1nnc(N2CCOCC2)s1)NC(=O)Nc1ccccc1,15.26
CC(C)(C)OC(=O)N1CCN(c2ccc(F)cc2)CC1C(=O)O (configuration not stated),3.675
CN(Cc1ccccc1)C(=O)CCS(=O)(=O)c1ccc2c(c1)OCCO2,1.796
FC(F)(F)c1cccc(C2(CNCc3cc[nH]c3)CCOCC2)c1,2.506
O=C(c1cccnc1O)N(Cc1cccs1)CC1CCCO1 (configuration not stated),10.66
CCc1nc(CC)n(CC(=O)N(CC)CC)n1,14.29
O=C(O)c1cncc(Cc2ccccc2F)c1,17.72
CS(=O)(=O)CCn1ccc(NC(=O)CCc2cccc(F)c2)n1,20.44
CCC[C@H]1CN(S(=O)(=O)c2ccc(-c3c(C)noc3C)s2)C[C@@H]1N,14.04
Cc1cnn(C2CCCN(C(=O)c3ccc(O)nc3)C2)c1 (configuration not stated),14.53
Cn1nc(CN2CCCCC(N)C2)c2c(Cl)cccc21 (configuration not stated),13.64
Cc1ccc(-c2ncc(C(=O)NCCNC(=O)C3CC3)s2)c(C)c1,-1.534
N#Cc1nccnc1N1CCC(C(O)c2cccs2)CC1 (configuration not stated),14.03
CC1(C)CN(C(=O)c2ncc(F)cc2F)CCC1(O)CN1CCOCC1 (configuration not stated),9.924
CCC(C)[C@H](NC(=O)c1ccc(F)cc1-n1cnnn1)C(=O)OC (some centres not stated),3.876
CCc1nc(C2CCCN2C(=O)CCc2nc(C3CC3)no2)no1 (configuration not stated),4.749
c1cc(CN2CCO[C@H]3[C@H](OCC4CCCC4)CC[C@@H]32)ccn1,15.15
Cc1oc(CN(C)C(=O)c2ccc(Br)cc2)cc1C(=O)O,5.923
O[C@@H]1C[C@@](CNCc2ccccn2)(COc2cccnc2)C[C@@H]1O,9.153
c1cncc(OCc2noc3c2CN(Cc2ccsc2)CC3)c1,8.357
Cc1cc2occ(CC(=O)N3CCC4(CCCN(C)C4=O)C3)c2cc1Cl (configuration not stated),13.54
CCS(=O)(=O)N[C@H]1CN(Cc2noc(COC)n2)C[C@@H]1C1CC1,11.75
O=C(NCCc1nccs1)c1cn(CCN2CCNCC2)nn1,2.801
CCC(O)CN1CCN(C(=O)c2cnc3n[nH]c(C)c3c2)CC1 (configuration not stated),6.286
O=C(O)c1cc(-c2cccnc2)cc(S(=O)(=O)N2CCCCCC2)c1,17.04
Cc1noc(C)c1CCC(=O)N1CCOCC1CCc1cnccn1 (configuration not stated),7.349
COc1ccccc1CN(C)C(=O)CN1CC(n2nc(C)cc2C)C1,16.45
CCOCc1cnc2n1CCN(Cc1cccs1)C2C (configuration not stated),12.28
CSCCc1n[nH]c2c1CN(S(=O)(=O)c1cn(C)c(C)n1)CC2,7.99
C[C@@H]1CN(c2nc3c(cc2C(N)=O)CCC3)C[C@@]1(O)C1CCC1,12.11
Nc1nccnc1C1CN(Cc2ccc(OCC(=O)O)cc2)CCO1 (configuration not stated),1.266
Cc1nc(C(C)C)sc1CNC(=O)CCCN1CCCCC1,1.882
CN1CCCC[C@@H]2[C@H]1[C@@H](c1ccccc1)CCN2C(=O)c1cnccn1,18.15
CN1C[C@]2(CC[C@@H](C(=O)O)CC2)Oc2ccccc2C1=O,13.44
COc1ccc([C@@H]2NC(=O)N[C@H]3OCCC[C@H]32)cc1,14.11
O=C(c1ccc(Cl)s1)N1CCC2(CNS(=O)(=O)c3cnccc3O2)C1 (configuration not stated),5.143
COc1c(CNCc2ccc(C(=O)NC3CC3)cc2)c(C)nn1C,15.28
CN1CCN(CC(=O)NCc2ccco2)Cc2ccccc21,12.03
Cn1ccnc1CN(Cc1ccccn1)Cc1ccccc1Cl,16.27
CC(C)S(=O)(=O)CC(=O)N(Cc1ccsc1)c1ccccc1,19.22
CC(C)(C)c1nnc(CN2CCC(c3cc4ccccc4[nH]3)CC2)o1,8.635
CCc1ccc(C(=O)N2CCC(Nc3ccc(C)nn3)CC2)o1,19.36
CCCS(=O)(=O)N1C[C@@H]2COC[C@]2(CN2CCOCC2)C1,11.52
COc1cccn(CC(=O)N(C)CCC2CCOCC2)c1=O,3.746
COc1ccc(OC)c(S(=O)(=O)NCC2(OC)CCSC2)c1 (configuration not stated),8.696
CCc1noc(CN(Cc2cccs2)CC2CCCO2)n1 (configuration not stated),23.21
CO[C@H]1C[C@@H](O)C12CCN(CCCOc1ccc(C(N)=O)cc1)CC2,19.52

For reference, 11 entries once more:

{"compound": "O=C(CSc1nnc(N2CCOCC2)s1)NC(=O)Nc1ccccc1", "inhibition": 15.26}
{"compound": "CCS(=O)(=O)N[C@H]1CN(Cc2noc(COC)n2)C[C@@H]1C1CC1", "inhibition": 11.75}
{"compound": "CN1CCN(c2ncnc3c2CCN(c2ncc(F)cn2)CC3)CC1", "inhibition": 5.226}
{"compound": "Cc1ccc(CN2CCc3ncnc(C4CCOC4)c3CC2)s1", "stereo": "configuration not stated", "inhibition": 15.48}
{"compound": "O=C(O)c1cc(-c2cccnc2)cc(S(=O)(=O)N2CCCCCC2)c1", "inhibition": 17.04}
{"compound": "O=C(NCCc1nccs1)c1cn(CCN2CCNCC2)nn1", "inhibition": 2.801}
{"compound": "Cc1oc(CN(C)C(=O)c2ccc(Br)cc2)cc1C(=O)O", "inhibition": 5.923}
{"compound": "FC(F)(F)c1cccc(C2(CNCc3cc[nH]c3)CCOCC2)c1", "inhibition": 2.506}
{"compound": "CCC[C@H]1CN(Cc2ccc(N(C)C)nc2)C[C@@H]1NC(=O)CCOC", "inhibition": 4.53}
{"compound": "COc1ccc(OC)c(S(=O)(=O)NCC2(OC)CCSC2)c1", "stereo": "configuration not stated", "inhibition": 8.696}
{"compound": "CC1=Nc2c(c(=O)[nH]n2C2CCCCC2)C(c2ccc(C(=O)O)cc2)S1", "stereo": "configuration not stated", "inhibition": "16.28 & 14.4"}